Reference: PubChem BioAssay AID330 (DTP/NCI, 2004)
The list is a part of this screen's results and no random one: it is rich in T/C values a quarter to a half above the control, in often repeated tests (any T/C) and in doses without a T/C. Other doses and runs of a compound stand elsewhere. T/C: endpoint of the treated group in % of that of the vehicle group. Some entries give survivors of the animals treated and no T/C: the source holds a T/C of zero for them, seemingly a mark for toxic or unscored doses. Survivors were counted at the toxicity check, usually on the fifth day, unless a day is given; later deaths do not show. Schedule codes are those of the source, taken here to give the interval after Q, in days (D) or hours (H), and the number of doses after X. Where survival is the endpoint, the PubChem record calls one and a half times the control and up active, and a quarter to a half above the control has no call in these data; cut-offs in other NCI protocols can differ.

Tested on: P388 leukemia ip, CD2F1 mice, survival T/C
Experiment: NCI In Vivo Anticancer Drug Screen. Data for tumor model P388 Leukemia (intraperitoneal) in CD2F1 (CDF1) mice
Details: T/C endpoint: median survival time, higher T/C = longer survival

CCCC(O)/C=C/C=C/C=C/C#CC#CCCCO (stereo not drawn) was tested, and the T/C (dose: 0.5 mg/kg/injection, schedule: Q01DX005 (ip), vehicle: DMSO) was 125 % of control.
In the case of CC(C)(C)/C(=N\Nc1ccc([N+](=O)[O-])cc1[N+](=O)[O-])c1ccccc1, the survivor count (dose: 25.0 mg/kg/injection, schedule: Q01DX001 (ip), vehicle: saline with Tween-80) is reported as 0 of 6, the survivor count (dose: 50.0 mg/kg/injection, schedule: Q01DX001 (ip), vehicle: saline with Tween-80) is reported as 0 of 6 and the survivor count (dose: 100.0 mg/kg/injection, schedule: Q01DX001 (ip), vehicle: saline with Tween-80) is reported as 0 of 6.
In the case of CNc1ncnc2ccccc12, the survivor count (dose: 200.0 mg/kg/injection, schedule: Q01DX009 (ip), vehicle: saline with Tween-80) is reported as 0 of 6.
For Cc1ccc(S(=O)(=O)C(CC(=O)CCN(C)C)c2ccccc2)cc1 (stereo not drawn), the survivor count (dose: 200.0 mg/kg/injection, schedule: Q01DX009 (ip), vehicle: saline) was 1 of 6.
For C=C(C[N+](C)(C)C)c1ccc([N+](=O)[O-])cc1, the survivor count (dose: 100.0 mg/kg/injection, schedule: Q01DX005 (ip), vehicle: Klucel (hydroxypropylcellulose) (HPC)) was 0 of 5 and the survivor count (dose: 200.0 mg/kg/injection, schedule: Q01DX005 (ip), vehicle: Klucel (hydroxypropylcellulose) (HPC)) was 0 of 5.
